Measurements reported in PubChem BioAssay AID743458 (Peter MacCallum Cancer Centre, 2014)

- Assay: 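Retest earlier hits with independent siRNAs per gene for restoring vorinostat sensitivity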 (follow-up of hits)
- System: human HCT116-VR colon cancer cells made resistant to vorinostat
- Knock-down reagent: single siRNA or pool against human genes, 25 nM per single siRNA
- Timing: about 72 h after transfection, including 24 h of drug
- Conditions: vorinostat, 2.5 µM final, for 24 h
- Measurement: 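Cell viability by fluorescence and apoptosis by caspase 3/7 luminescence under vorinostat, background-corrected, averaged across two plate copies and given as fold change versus mock transfection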
- Scale: viability relative to mock: higher = more living cells than mock; caspase activity relative to mock: higher = more apoptosis than mock
- Call rule: 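Active means a reduced-viability or caspase-activation class, anything else inactive; classes could only be given to wells that looked healthy when left untreated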
The deposit covers about 1,800 reagents; this is a random part of them. Over the whole deposit, 732 (41%) were called active. 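Calls are per siRNA reagent; a gene was deemed confirmed only if most of its four siRNAs scored.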 The numbers tell different reagents against one gene apart.

gene symbol	reagent	viability relative to mock	caspase activity relative to mock	viability hit class	caspase hit class	outcome
CATSPERT (catsper channel auxiliary subunit tau)	1	0.84	1.17	no change	no change	inactive
CATSPERT (catsper channel auxiliary subunit tau)	2	0.55	2.22	reduced viability	no change	active
CATSPERT (catsper channel auxiliary subunit tau)	3	0.92	1.02	no change	no change	inactive
CATSPERT (catsper channel auxiliary subunit tau)	4	0.44	3.77	reduced viability	caspase activation	active
PDX1 (pancreatic and duodenal homeobox 1)	1	0.88	1.97	no change	no change	inactive
PDX1 (pancreatic and duodenal homeobox 1)	2	1.04	0.94	no change	no change	inactive
PDX1 (pancreatic and duodenal homeobox 1)	3	0.82	1.09	no change	no change	inactive
PDX1 (pancreatic and duodenal homeobox 1)	4	0.54	4.17	reduced viability	caspase activation	active

The list goes on, starting with the last 2 of the part before.
gene symbol	reagent	viability relative to mock	caspase activity relative to mock	viability hit class	caspase hit class	outcome
PDX1 (pancreatic and duodenal homeobox 1)	3	0.82	1.09	no change	no change	inactive
PDX1 (pancreatic and duodenal homeobox 1)	4	0.54	4.17	reduced viability	caspase activation	active
RNF216 (ring finger protein 216)	1	0.99	0.96	no change	no change	inactive
RNF216 (ring finger protein 216)	2	0.82	1.43	no change	no change	inactive
RNF216 (ring finger protein 216)	3	1.06	3.84	no change	caspase activation	active
RNF216 (ring finger protein 216)	4	0.92	1	no change	no change	inactive
SEMA4F (ssemaphorin 4F)	1	0.61	6.38	no change	caspase activation	active
SEMA4F (ssemaphorin 4F)	2	1	2.97	no change	caspase activation	active
SEMA4F (ssemaphorin 4F)	3	0.96	1.72	no change	no change	inactive
SEMA4F (ssemaphorin 4F)	4	0.76	1.09	no change	no change	inactive
